{
  "sequences": {"note": "Protein sequences, listed by entry. Tags and fused reporters are not part of them. Residues count along the entry.", "UniProt P02768, 25-609": "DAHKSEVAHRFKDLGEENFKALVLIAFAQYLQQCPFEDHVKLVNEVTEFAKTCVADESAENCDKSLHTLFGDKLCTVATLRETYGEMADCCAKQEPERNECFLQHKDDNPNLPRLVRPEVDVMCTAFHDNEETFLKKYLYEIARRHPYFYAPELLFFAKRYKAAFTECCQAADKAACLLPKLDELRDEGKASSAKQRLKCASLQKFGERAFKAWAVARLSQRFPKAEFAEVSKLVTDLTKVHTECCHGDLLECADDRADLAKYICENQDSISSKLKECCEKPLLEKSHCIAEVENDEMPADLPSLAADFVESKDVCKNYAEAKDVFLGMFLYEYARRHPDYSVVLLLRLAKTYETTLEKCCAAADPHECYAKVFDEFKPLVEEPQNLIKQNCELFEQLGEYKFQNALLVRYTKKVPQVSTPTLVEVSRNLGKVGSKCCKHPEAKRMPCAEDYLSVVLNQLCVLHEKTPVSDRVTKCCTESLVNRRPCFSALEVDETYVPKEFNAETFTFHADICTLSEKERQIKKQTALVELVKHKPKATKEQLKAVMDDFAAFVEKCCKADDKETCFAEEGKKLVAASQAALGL"},
  "source": "paper PMC11372837",
  "about": "“Albumin-Mediated Drug Uptake by Organic Anion Transporter 1/3 Is Real: Implications for the Prediction of Active Renal Secretion Clearance” (Molecular Pharmaceutics, 2024)",
  "key": {"OAT1/3 [1]": {"tested_on": "OAT1/3", "assay": "Bottom-up IVIVE of CLint,sec, CLsec and CLr, relative activity factor (RAF) approach", "set-up": "species or system human", "from_the_text": "(§1) The relative expression and relative activity factor (REF and RAF) are unitless scalers that account for in vivo versus in vitro differences in the abundance and activity of OAT1/3 and are used for IVIVE of in vitro CLint,u,active. REF was derived from the OAT1/3 expression ratio between the in vivo human kidney cortex to the in vitro ciPTEC-OAT1/3, as shown in eq 7: [drawing 8] 7 Absolute abundance of OAT1 and OAT3 in the human kidney cortex was previously quantified by our group using the filter-aided sample preparation protocol and global proteomic analysis.[44]"}, "[2]": {"conditions": "human, in vivo"}, "human serum albumin": {"target": "human serum albumin (Homo sapiens, UniProt P02768)", "assay": "Extent of albumin binding: high throughput equilibrium dialysis (fu,inc, Kd)", "format": "in vitro ADME", "conditions": "mean ± SD; for fraction unbound at 6 h: human, equilibrium dialysis 37 °C 6 h", "method": "Briefly, cellulose membranes with MWCO of 12–14 kDa were submerged in distilled water for 1 h, followed by 20% ethanol/distilled water for at least 20 min. Prior to the start of the experiment, cellulose membranes were rinsed in distilled water and submerged in blank DPBS for 15 min. The HTDialysis device was assembled according to the manufacturer’s instructions (https://www.htdialysis.com). Blank DPBS was first added to the receiver side of the dialysis membranes, followed by DPBS spiked with HSA and the OAT1/3 substrate to the donor side. Each HSA concentration was tested in triplicates. The HTDialysis device was sealed with an adhesive sealing film and incubated in a water bath at 37 °C for 6 h shaken at 150 rpm. Once the assay was completed, aliquots from both receiver and donor wells were transferred to a 96-well plate and stored at −80 °C until analysis. DPBS spiked with the OAT1/3 substrate from both before and after incubation was stored to assess the recovery and stability of the samples. To prepare the sample for analysis, donor and receiver samples were matrix-matched and quenched with ice-cold acetonitrile containing an internal standard (0.5 μM gemfibrozil or 0.05 μM buspirone)."}, "OAT1": {"target": "T1, OAT1 (Homo sapiens, UniProt Q4U2R8)", "T1 sequence (Q4U2R8 1-563)": "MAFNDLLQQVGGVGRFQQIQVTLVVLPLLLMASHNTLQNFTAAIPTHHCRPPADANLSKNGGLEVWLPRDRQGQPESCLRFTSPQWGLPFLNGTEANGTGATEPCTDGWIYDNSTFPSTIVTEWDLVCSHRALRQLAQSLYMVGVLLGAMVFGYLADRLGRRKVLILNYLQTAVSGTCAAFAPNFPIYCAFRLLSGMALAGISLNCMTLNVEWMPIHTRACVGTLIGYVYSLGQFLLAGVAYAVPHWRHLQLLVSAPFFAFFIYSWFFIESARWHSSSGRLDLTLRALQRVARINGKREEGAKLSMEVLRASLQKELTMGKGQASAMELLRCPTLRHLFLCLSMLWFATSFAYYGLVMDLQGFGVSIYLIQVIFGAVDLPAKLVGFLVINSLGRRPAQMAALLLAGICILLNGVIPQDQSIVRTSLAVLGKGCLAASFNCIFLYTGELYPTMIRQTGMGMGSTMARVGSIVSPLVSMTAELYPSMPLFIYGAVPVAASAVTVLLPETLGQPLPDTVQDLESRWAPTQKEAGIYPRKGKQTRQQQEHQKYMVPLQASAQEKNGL", "assay": "OAT1 uptake study in ciPTEC-OAT1", "conditions": "control vs probenecid 300 μM"}, "OAT1/3 [3]": {"tested_on": "OAT1/3", "assay": "Bottom-up IVIVE of CLint,sec, CLsec and CLr, relative expression factor (REF) approach", "set-up": "species or system human", "from_the_text": "as §1"}, "[4]": {"conditions": "in vivo, plasma renal clearance, clinical data; cited from earlier work"}, "OAT3": {"target": "T2, OAT3 (Homo sapiens, UniProt Q8TCC7)", "T2 sequence (Q8TCC7 1-542)": "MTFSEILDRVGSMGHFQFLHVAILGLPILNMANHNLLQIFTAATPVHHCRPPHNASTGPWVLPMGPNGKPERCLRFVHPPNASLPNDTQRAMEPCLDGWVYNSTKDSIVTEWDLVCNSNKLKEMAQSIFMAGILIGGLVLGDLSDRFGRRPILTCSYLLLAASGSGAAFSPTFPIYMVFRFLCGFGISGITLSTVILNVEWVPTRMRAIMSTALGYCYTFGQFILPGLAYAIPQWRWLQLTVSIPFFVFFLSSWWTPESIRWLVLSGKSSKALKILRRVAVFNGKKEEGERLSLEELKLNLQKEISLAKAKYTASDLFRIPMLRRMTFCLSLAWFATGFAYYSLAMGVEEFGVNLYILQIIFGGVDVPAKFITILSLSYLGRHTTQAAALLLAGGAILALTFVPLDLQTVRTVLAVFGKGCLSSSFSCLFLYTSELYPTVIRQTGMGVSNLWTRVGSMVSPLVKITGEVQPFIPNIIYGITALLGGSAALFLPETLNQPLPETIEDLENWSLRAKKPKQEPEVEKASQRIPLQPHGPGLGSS", "assay": "OAT3 uptake study in ciPTEC-OAT3"}},
  "note": "Like-named read-outs stand apart in the source and are kept apart here.",
  "data": [
    {"compound": "NS(=O)(=O)c1cc(C(=O)O)c(NCc2ccco2)cc1Cl", "note": "[furosemide]", "values": [
      {"measurement": "CLint,sec Predicted 0% HSA", "setting": "OAT1/3 [1]", "result": 29.4, "unit": "L/h"},
      {"measurement": "CLint,sec Predicted 1% HSA", "setting": "OAT1/3 [1]", "result": 191, "unit": "L/h"},
      {"measurement": "CLint,sec Predicted 4% HSA", "setting": "OAT1/3 [1]", "result": 579, "unit": "L/h"},
      {"measurement": "CLsec Predicted 0% HSA", "setting": "OAT1/3 [1]", "result": 0.91, "unit": "L/h"},
      {"measurement": "CLsec Predicted 1% HSA", "setting": "OAT1/3 [1]", "result": 5.20, "unit": "L/h"},
      {"measurement": "CLsec Predicted 4% HSA", "setting": "OAT1/3 [1]", "result": 12.2, "unit": "L/h"},
      {"measurement": "CLint,sec Observed", "setting": "[2]", "result": 190, "unit": "L/h"},
      {"measurement": "Kd", "setting": "human serum albumin; estimated using eq 3 from measured fu,inc", "result": "26.1 ± 1.6", "unit": "µM"},
      {"measurement": "fraction unbound at 6 h", "setting": "human serum albumin; 1% human serum albumin in DPBS, 1% HSA, read-out: fu,inc (1%)", "result": "0.162 ± 0.03"},
      {"measurement": "fraction unbound at 6 h", "setting": "human serum albumin; 4% HSA in DPBS, 4% HSA, read-out: fu,inc (4%)", "result": "0.038 ± 0.002"},
      {"measurement": "OAT1 substrate status (uptake in ciPTEC-OAT1)", "setting": "OAT1", "result": "did not observe appreciable OAT1-mediated transport"},
      {"measurement": "OAT1 substrate status (uptake in ciPTEC-OAT1)", "setting": "OAT1; listed as Furosemide", "result": "did not show any appreciable uptake"},
      {"measurement": "CLint,sec Predicted 0% HSA", "setting": "OAT1/3 [3]", "result": 5.83, "unit": "L/h"},
      {"measurement": "CLint,sec Predicted 1% HSA", "setting": "OAT1/3 [3]", "result": 37.8, "unit": "L/h"},
      {"measurement": "CLint,sec Predicted 4% HSA", "setting": "OAT1/3 [3]", "result": 115, "unit": "L/h"},
      {"measurement": "CLsec Predicted 0% HSA", "setting": "OAT1/3 [3]", "result": 0.19, "unit": "L/h"},
      {"measurement": "CLsec Predicted 1% HSA", "setting": "OAT1/3 [3]", "result": 1.17, "unit": "L/h"},
      {"measurement": "CLsec Predicted 4% HSA", "setting": "OAT1/3 [3]", "result": 3.32, "unit": "L/h"},
      {"measurement": "CLr Observed", "setting": "[4]", "result": 5.31, "unit": "L/h"},
      {"measurement": "ratio of CLint,u,active (R) (HSA/control) 1%", "setting": "OAT3; OAT3, 1% HSA vs control", "result": "6.52 ± 0.90"},
      {"measurement": "ratio of CLint,u,active (R) (HSA/control) 4%", "setting": "OAT3; OAT3, 4% HSA vs control", "result": "21.1 ± 7.7"}
    ]}
  ]
}
